In patent US12679838B2, “Aromatic compound and application thereof in antitumor drug” (Shanghai Zheye Biotechnology Co., Ltd., priority 2020, dated 2026):
Some entries share one result that the patent states for a list of compounds.

System: MIA-paca-2 cells subcutaneous transplanted tumor
Experiment: Pharmacodynamic test of CDX model in nude mice
Conditions: in vivo pharmacodynamic tests
Experimental: Animal species and number: Balb/c Nude.
Test groups: blank solvent control group; compound 3-2M (10 mg/kg, QD×15 days), and compound 3-6M (10 mg/kg, QD×15 days).
Animal model establishment: MIA-paca-2 cells were cultured in vitro and inoculated subcutaneously on the right side of the back of nude mice, and the tumor-bearing nude mice were randomly grouped. Subsequently, each group of animals was administered and the day of the first administration was defined as day 1 of the test.
Administration route and frequency: oral gavage; and once a day.
General state observation: observation time and frequency: once a day; observation index or content: including, but not limited to local administration, appearance and signs, general behavioral activities, mental status, death and other abnormal manifestations of the animals. The animals were euthanized at the end of the test.
Tumor volume calculation: V=½×long diameter×short diameter^2 (mm^3). Tumor growth inhibition ratio TGI (%) was used to evaluate the tumor suppressive efficacy of the compounds. TGI (%)=[1-(mean tumor volume at the end of administration of the treatment group−mean tumor volume at the beginning of administration of the treatment group)/(mean tumor volume at the end of administration of the control group−mean tumor volume at the beginning of administration of the control group)]×100%.

SMILES	tumor suppression onset dose
C=CC(=O)N1CCN(c2nc(=O)n(-c3c(C)ccnc3C(C)C)c3nc(-c4c(F)cccc4C=O)c(Cl)cc23)[C@@H](C)C1 (single isomer, unassigned) [Compound 3-6M]	less than 10 mg/kg
C=CC(=O)N1CCN(c2nc(=O)n(-c3c(C)ccnc3C(C)C)c3nc(-c4ccccc4C=O)c(Cl)cc23)[C@@H](C)C1 [Compound 3-2M]	less than 10 mg/kg
